Reference: patent publication US20160195533A1, “METHOD FOR SCREENING EMT INHIBITOR” (Medicinal Bioconvergence Research Center, priority 2015, published 2016)
Results are given in words; binding and its absence hold for the method and conditions named. In cells and extracts the contact can be indirect. Some entries that bind do so weakly or less than the wild type. Sequences can lack the tags named with a protein.

Protein sequences, listed by entry. Tags and fused reporters are not part of them. Lines headed by an entry give the natural chain unless they say otherwise; changes in a name come on top.
UniProt O95863: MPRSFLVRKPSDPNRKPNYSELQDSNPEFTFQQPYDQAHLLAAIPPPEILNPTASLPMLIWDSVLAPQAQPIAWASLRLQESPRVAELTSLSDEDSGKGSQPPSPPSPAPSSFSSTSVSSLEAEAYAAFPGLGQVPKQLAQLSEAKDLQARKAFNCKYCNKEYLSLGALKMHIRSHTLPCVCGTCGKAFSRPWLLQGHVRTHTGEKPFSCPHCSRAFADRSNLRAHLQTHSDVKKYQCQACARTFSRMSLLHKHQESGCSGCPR

B1: Strep-tagged ERS-WHEP domain of EPRS (pEXPR-IBA105-ERS) (enzyme, not shown: small tags and cut ends)
chain: MATLSLTVNSGDPPLGALLAVEHVKDDVSISVEEGKENILHVSENVIFTDVNSILRYLARVATTAGLYGSNLMEHTEIDHWLEFSATKLSSCDSFTSTINELNHCLSLRTYLVGNSLSLADLCVWATLKGNAAWQEQLKQKKAPVHVKRWFGFLEAQQAFQSVGTKWDVSTTKARVAPEKKQDVGKFVELPGAEMGKVTVRFPPEASGYLHIGHAKAALLNQHYQVNFKGKLIMRFDDTNPEKEKEDFEKVILEDVAMLHIKPDQFTYTSDHFETIMKYAEKLIQEGKAYVDDTPAEQMKAEREQRIDSKHRKNPIEKNLQMWEEMKKGSQFGQSCCLRAKIDMSSNNGCMRDPTLYRCKIQPHPRTGNKYNVYPTYDFACPIVDSIEGVTHALRTTEYHDRDEQFYWIIEALGIRKPYIWEYSRLNLNNTVLSKRKLTWFVNEGLVDGWDDPRFPTVRGVLRRGMTVEGLKQFIAAQGSSRSVVNMEWDKIWAFNKKVIDPVAPRYVALLKKEVIPVNVPEAQEEMKEVAKHPKNPEVGLKPVWYSPKVFIEGADAETFSEGEMVTFINWGNLNITKIHKNADGKIISLDAKLNLENKDYKKTTKVTWLAETTHALPIPVICVTYEHLITKPVLGKDEDFKQYVNKNSKHEELMLGDPCLKDLKKGDIIQLQRRGFFICDQPYEPVSPYSCKEAPCVLIYIPDGHTKEMPTSGSKEKTKVEATKNETSAPFKERPTPSLNNNCTTSEDSLVLYNRVAVQGDVVRELKAKKAPKEDVDAAVKQLLSLKAEYKEKTGQEYKPGNPPAEIGQNISSNSSASILESKSLYDEVAAQGEVVRKLKAEKSPKAKINEAVECLLSLKAQYKEKTGKEYIPGQPPLSQSSDSSPTRNSEPAGLETPEAKVLFDKVASQGEVVRKLKTEKAPKDQVDIAVQELLQLKAQYKSLIGVEYKPVSATGAEDKDKKKKEKENKSEKQNKPQKQNDGQRKDPSKNQGGGLSSS
B2: Strep-tagged WHEP-PRS domain of EPRS (pEXPR-IBA105-PRS) (enzyme, not shown: small tags and cut ends)
chain: VEATKNETSAPFKERPTPSLNNNCTTSEDSLVLYNRVAVQGDVVRELKAKKAPKEDVDAAVKQLLSLKAEYKEKTGQEYKPGNPPAEIGQNISSNSSASILESKSLYDEVAAQGEVVRKLKAEKSPKAKINEAVECLLSLKAQYKEKTGKEYIPGQPPLSQSSDSSPTRNSEPAGLETPEAKVLFDKVASQGEVVRKLKTEKAPKDQVDIAVQELLQLKAQYKSLIGVEYKPVSATGAEDKDKKKKEKENKSEKQNKPQKQNDGQRKDPSKNQGGGLSSSGAGEGQGPKKQTRLGLEAKKEENLADWYSQVITKSEMIEYHDISGCYILRPWAYAIWEAIKDFFDAEIKKLGVENCYFPMFVSQSALEKEKTHVADFAPEVAWVTRSGKTELAEPIAIRPTSETVMYPAYAKWVQSHRDLPIKLNQWCNVVRWEFKHPQPFLRTREFLWQEGHSAFATMEEAAEEVLQILDLYAQVYEELLAIPVVKGRKTEKEKFAGGDYTTTIEAFISASGRAIQGGTSHHLGQNFSKMFEIVFEDPKIPGEKQFAYQNSWGLTTRTIGVMTMVHGDNMGLVLPPRVACVQVVIIPCGITNALSEEDKEALIAKCNDYRRRLLSVNIRVRADLRDNYSPGWKFNHWELKGVPIRLEVGPRDMKSCQFVAVRRDTGEKLTVAENEAETKLQAILEDIQVTLFTRASEDLKTHMVVANTMEDFQKILDSGKIVQIPFCGEIDCEDWIKKTTARDQDLEPGAPSMGAKSLCIPFKPLCELQPGAKCVCGKNPAKYYTLFGRSY

Target: Flag-tagged Snail1 (pCMV-Tag2B N-terminal Flag-tagged Snail1 expression vector, Addgene) (human) (UniProt O95863)
Test: Strep pull-down (MagSTREP type 2HC) from co-transfected HEK293T cells, anti-Flag western blot

Row | Binder | binding
1 | B1 | binds
2 | B2 | binds
